The text below walks through data of US20240197743A1, “WEE1 COMPOUND FOR TREATING UTERINE SEROUS CARCINOMA” (Recurium IP Holdings, LLC, priority 2021, published 2024).

The test system of this data set is subjects with uterine serous carcinoma (USC). Nature of the data set: ZN-c3-001 (NCT04158336) open label, multicenter, Phase I dose escalation and expansion study; subjects with USC at doses ≥300 mg QD. It counts as in vivo, human. Conditions: 14 USC subjects, ZN-c3 ≥300 mg QD oral. The method, then: ZN-c3-001 (NCT04158336) is an open label, multicenter, Phase I dose escalation and expansion study evaluating the safety and clinical activity of ZN-c3 in subjects with advanced or metastatic solid tumors, refractory to standard therapy or for whom no standard therapy is available. Oral, daily ZN-c3 dosing was escalated from 25 mg to 450 mg once daily (QD), with a recommended phase 2 dose of 300 mg QD. Here we report preliminary safety and efficacy results for subjects with USC who received ZN-c3 at doses ≥300 mg QD.

With `C=CCn1c(=O)c2cnc(Nc3ccc(N4CCN(C)CC4)cc3)nc2n1-c1ccc2c(n1)[C@@](O)(CC)CC2` [ZN-c3, (R)-2-allyl-1-(7-ethyl-7-hydroxy-6,7-dihydro-5H-cyclopenta[b]pyridin-2-yl)-6-((4-(4-methylpiperazin-1-yl)phenyl)amino)-1,2-dihydro-3H-pyrazolo[3,4-d]pyrimidin-3-one], the “duration of treatment, range” value is 2-36 weeks. In addition, the “Median duration of treatment” value (as of Jan. 21, 2022) was found to be 12.4 weeks.
